Results reported in patent US20160304970A1, “GENE BIOMARKER TO DIAGNOSE METASTIC LIVER CANCER AND METHODS FOR TARGETING THE SAME” (University of Southern California, priority 2015, published 2016).
No constants are given. Whether binding was seen depends on the method and setting. Some binding calls cover weakened binding; strength is not graded here.

Chains of the proteins cited; added tags and fusions are not shown. Residues count along the entry.
UniProt P42227, residues 2-770: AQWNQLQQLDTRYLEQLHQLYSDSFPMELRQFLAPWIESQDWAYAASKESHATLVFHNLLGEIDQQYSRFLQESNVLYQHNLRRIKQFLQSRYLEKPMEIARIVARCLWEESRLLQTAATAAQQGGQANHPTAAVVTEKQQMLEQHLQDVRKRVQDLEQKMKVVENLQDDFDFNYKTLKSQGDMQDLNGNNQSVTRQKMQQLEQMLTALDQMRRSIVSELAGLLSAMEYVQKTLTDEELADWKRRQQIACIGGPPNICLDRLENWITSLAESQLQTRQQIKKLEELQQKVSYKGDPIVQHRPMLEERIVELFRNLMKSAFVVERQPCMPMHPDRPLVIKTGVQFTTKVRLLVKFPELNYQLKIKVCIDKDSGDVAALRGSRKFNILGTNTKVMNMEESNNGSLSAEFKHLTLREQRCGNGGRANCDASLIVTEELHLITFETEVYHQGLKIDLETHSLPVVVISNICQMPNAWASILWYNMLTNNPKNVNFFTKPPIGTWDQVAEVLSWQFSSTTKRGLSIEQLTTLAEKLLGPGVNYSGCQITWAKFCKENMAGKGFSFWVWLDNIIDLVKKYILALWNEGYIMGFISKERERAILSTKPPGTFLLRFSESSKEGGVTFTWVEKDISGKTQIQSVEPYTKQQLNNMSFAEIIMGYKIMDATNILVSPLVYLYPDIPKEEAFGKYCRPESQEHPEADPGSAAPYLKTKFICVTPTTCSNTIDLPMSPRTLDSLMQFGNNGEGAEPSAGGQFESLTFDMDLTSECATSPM

Key:
pSTAT3 (mouse) [1] = target: pSTAT3 (mouse) (UniProt P42227); experiment: sequential-ChIP-qPCR on the Twist1 promoter in TICs (FIG. 22E)
pSTAT3 (mouse) [2] = target: pSTAT3 (mouse) (UniProt P42227); experiment: summary of the sequential-ChIP result in TICs from NS5A Tg mice
pSTAT3 (mouse) [3] = target: pSTAT3 (mouse) (UniProt P42227); experiment: sequential-ChIP-qPCR analysis (FIG. 22E)
pSTAT3 (mouse) [4] = target: pSTAT3 (mouse) (UniProt P42227); experiment: sequential-ChIP analysis on the Twist1 promoter in TICs

binding (pSTAT3 (mouse) [1]): binds
binding (pSTAT3 (mouse) [2]): binds
binding (pSTAT3 (mouse) [3]): binds
binding (pSTAT3 (mouse) [4]): binds
B1: NANOG (protein, mouse, UniProt Q80Z64 1-305, looked up)
chain: MSVGLPGPHSLPSSEEASNSGNASSMPAVFHPENYSCLQGSATEMLCTEAASPRPSSEDLPLQGSPDSSTSPKQKLSSPEADKGPEEEENKVLARKQKMRTVFSQAQLCALKDRFQKQKYLSLQQMQELSSILNLSYKQVKTWFQNQRMKCKRWQKNQWLKTSNGLIQKGSAPVEYPSIHCSYPQGYLVNASGSLSMWGSQTWTNPTWSSQTWTNPTWNNQTWTNPTWSSQAWTAQSWNGQPWNAAPLHNFGEDFLQPYVQLQQNFSASDLEVNLEATRESHAHFSTPQALELFLNYSVTPPGEI
